Results are given in words; binding and its absence hold for the method and conditions named. In cells and extracts the contact can be indirect. Some binding calls cover weakened binding; strength is not graded here.
Biological target: T1, NeYFP-CAT2 (A. thaliana) (UniProt P25819)
T1 sequence: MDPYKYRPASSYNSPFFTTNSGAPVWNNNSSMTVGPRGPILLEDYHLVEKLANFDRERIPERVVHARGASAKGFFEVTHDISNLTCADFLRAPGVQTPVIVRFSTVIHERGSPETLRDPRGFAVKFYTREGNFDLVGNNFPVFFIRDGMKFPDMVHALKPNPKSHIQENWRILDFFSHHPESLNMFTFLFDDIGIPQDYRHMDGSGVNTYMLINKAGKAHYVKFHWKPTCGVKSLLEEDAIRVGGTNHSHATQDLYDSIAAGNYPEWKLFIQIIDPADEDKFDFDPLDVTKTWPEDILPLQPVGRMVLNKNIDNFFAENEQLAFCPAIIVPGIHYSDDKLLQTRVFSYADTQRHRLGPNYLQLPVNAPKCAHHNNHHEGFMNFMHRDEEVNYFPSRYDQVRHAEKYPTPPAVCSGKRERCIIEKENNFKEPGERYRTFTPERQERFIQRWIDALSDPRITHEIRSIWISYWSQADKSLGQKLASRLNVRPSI
Assay: split reporter; BiFC with NeYFP and CeYFP fusions driven by the 35S promoter, tobacco leaves infiltrated with Agrobacterium, protoplasts imaged after 3 days; BiFC/red fluorescence in chloroplasts

B1: CeYFP-AtPNP-A (protein, UniProt Q9ZV52 26-130)
chain: AQGKAVYYDPPYTRSACYGTQRETLVVGVKNNLWQNGRACGRRYRVRCIGATYNFDRACTGRTVDVKVVDFCREPCNGDLNLSRDAFRVIANTDAGNIRVVYTPI
binding: binds
